The results in this text go back to PMC10675528, “N-Succinylaspartic-Acid-Conjugated Riluzole Is a Safe and Potent Colon-Targeted Prodrug of Riluzole against DNBS-Induced Rat Colitis” (Pharmaceutics, 2023).

One series in a line: physchem. Particulars: pH 6.8.
Series [1] can be described thus: RLZ concentration in blood (plasma) after oral administration. In kind it is in vivo, Sprague-Dawley rats. Particulars: male, Sprague-Dawley, rat, oral RLZ 10 mg/kg, sampled at 4, 8, 12 h, read-out: time of peak concentration of RLZ in blood. The method, then: The plasma (0.25 mL) was extracted with EA (0.7 mL), and the organic layer (0.5 mL) was evaporated and dissolved in mobile phase A or B (0.1 mL). After filtration through a membrane filter (0.45 μm), the filtrate (20 μL) was injected to HPLC. To determine the concentrations of SAR and RAS in the blood, MeOH (0.9 mL) was added to the plasma (0.1 mL) and centrifuged at 10,000× g at 4 °C for 10 min. After filtration of the supernatants through a membrane filter (0.45 μm), the filtrate (20 μL) was injected to HPLC.

The logD is lipophilicity at a set pH, counting ionised and neutral species.

`Nc1nc2ccc(OC(F)(F)F)cc2s1` [RLZ, riluzole] returned a logD in “physchem” of 3.5. For the same compound, the Tmax in series [1] amounted to 4 h.
